The nature of this experiment: qHTS Assay for Lipid Storage Modulators in Drosophila S3 Cells.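 As to cell number change: cells counted by Cell Tracker Red CMTPX staining in the red channel.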 The settings on record: BODIPY lipid droplet fluorescence, 18-24 h; for cell number change: measured here: cell count max response, cells fed with added oleic acid. Summed up: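 Drosophila S3 cells loaded with oleic acid (400 uM, as added) and compounds at several concentrations; lipid droplets imaged by 488-nm laser-scanning cytometry, 500–530 nm intensity and object ratio to cell channel. Percent activity normalized to 20 uM Triacsin C.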

The mark [1] stands for this setting: measured here: lipid fluorescence (Fed channel) AC50, cells fed with added oleic acid.
[2] abbreviates: measured here: cell number channel AC50, cells fed with added oleic acid.

The other results are listed elsewhere or left out. These are further read-outs of the screen, such as a control signal, another cell line or another target. No call is given for them. Compounds called inactive in the main read-out are mostly missing here. The note in brackets gives the kind of curve behind each potency; many fits are weak.

As for `COc1ccc(C(=O)N2CCN=C2SCc2cccnc2)c(OC)c1`, the cell number change is -11.5%. Besides, the AC50 (usually the concentration giving half of the maximal activity seen) under setting [1] is 4.11 µM [falling, single point].

Consider `N#CCC(=O)N/N=C\c1ccc(OC/C=C/c2ccccc2)cc1`, for which the cell number change is -2.48%. The AC50 under setting [2] is 6.51 µM [rising, single point]. In addition, the AC50 under setting [1] was 11.6 µM [falling, single point].

Take `O=C(Nc1ccccc1)N1CCN(c2cccc(C(F)(F)F)c2)CC1`: the cell number change is -12.1%. Besides, the AC50 under setting [1] was 20.6 µM [rising, partial curve].

For `S=c1[nH]nc(COc2ccccc2)n1/N=C/c1ccc(Br)s1`, the cell number change was -25.4%. Also, the AC50 under setting [1] was 0.164 µM [falling, full curve, poor fit].

For the compound `O=C(O)Cn1nc(C(F)(F)F)c2c1CCCC2`, the cell number change is -50.7%. Besides, under setting [2], the AC50 is 5.8 µM [falling, partial curve, poor fit]. For the same compound, the half-maximal activity concentration (AC50) under setting [1] is 0.366 µM [falling, partial curve, poor fit].

Turning to `CCCCCC(=O)Nc1cc(S(=O)(=O)N2CCOCC2)ccc1Oc1ccc(OCC)cc1`, the cell number change is 2.45%. Further, the AC50 under setting [2] was 3.26 µM [rising, single point].

As to `O=C(NCc1ccco1)c1ccccc1O`, the cell number change worked out at 34.4%. In addition, under setting [2], the AC50 was 9.2 µM [rising, partial curve, poor fit]. For the same compound, under setting [1], the AC50 is 29.1 µM [rising, single point].

In the case of `COc1ccccc1/C=C(/C(=O)OCC(=O)Nc1ccc(N(C)C)cc1)c1ccccc1`, the cell number change is -0.235%. Also, the AC50 under setting [1] was 0.651 µM [falling, partial curve, poor fit].

Turning to `Cc1ccc(N2C(=S)N=C(Nc3ccccc3C)C23CCOC(C)(C)C3)cc1` (stereo unspecified), the cell number change is -24.3%. In addition, the AC50 under setting [1] is 32.6 µM [falling, single point].

As to `CCCN(CC1CC1)C(=O)CSc1ncnc2sc(C)c(C)c12`, the cell number change is 113%. For the same compound, the concentration at half-maximal activity (AC50) under setting [1] was 0.731 µM [falling, single point].

For `CC(Oc1ccc2c3c(c(=O)oc2c1)CCC3)C(=O)NCCCn1ccnc1` (stereo unspecified), the cell number change was -13.4%. Further, the AC50 under setting [1] is 29.1 µM [falling, single point].

Regarding `Cc1ccc(-c2cc(-c3ccccc3)[nH]c(=S)c2C#N)cc1`, the cell number change stood at 32.4%. In addition, under setting [2], the AC50 is 29.1 µM [rising, single point].

With `O=C(CSc1ncc(-c2ccc(F)cc2)n1Cc1ccco1)Nc1ccc2c(c1)OCO2`, the cell number change was 7.37%. Under setting [2], the AC50 was 0.164 µM [rising, full curve]. Moreover, the AC50 under setting [1] was 0.291 µM [rising, partial curve, poor fit].

Consider `c1ccc(CCCNc2ncnc3nc[nH]c23)cc1`, for which the cell number change was -15.8%. Also, the AC50 under setting [1] was 29.1 µM [falling, single point].

Turning to `CN(CC(=O)Nc1ccc(S(=O)(=O)N2CCCC2)cc1)Cc1ccc(Cl)c(Cl)c1`, the cell number change was -50%. Further, the AC50 under setting [2] is 2.91 µM [falling, full curve, poor fit]. The AC50 under setting [1] was 18.4 µM [falling, partial curve, poor fit].

As for `CCCC1=Nc2cc(C(=O)N3CCC(C(N)=O)CC3)ccc2Sc2ccccc21`, the cell number change was -1.15%. For the same compound, the AC50 under setting [1] is 0.82 µM [falling, single point].

Turning to `COc1ccc(NC(=O)CN(C)C(=O)Cc2ccc(S(=O)(=O)N3CCOCC3)s2)cc1`, the cell number change was -50%. Moreover, the AC50 under setting [2] is 29.1 µM [falling, single point]. For the same compound, under setting [1], the AC50 is 29.1 µM [rising, single point].

For the compound `CCc1nnc(NC(=O)c2cccc(S(=O)(=O)N3CCc4ccccc43)c2)s1`, the cell number change was determined as 2.76%.

With `COc1ccc(NC(=O)c2ccco2)cc1NC(=O)c1cccc(F)c1`, the cell number change was 10.1%. Also, the concentration at half-maximal activity (AC50) under setting [1] was 10.3 µM [falling, partial curve].

For `O=C(c1cc(-c2ccccn2)nc2ccc(Cl)cc12)N1CCN(CCc2ccccc2)CC1`, the cell number change was 16.9%. Further, the AC50 under setting [1] was 0.731 µM [rising, single point].

On to `CCCCOC(=O)c1c(C)oc2ccc(NS(=O)(=O)c3ccc4c5c(cccc35)C(=O)N4)cc12`, for which the cell number change came to 45.6%. Besides, the AC50 under setting [2] was 29.1 µM [rising, single point]. Besides, under setting [1], the AC50 was 6.51 µM [rising, single point].

For `O=C(NCC1CCCO1)c1cc2n(n1)C(C(F)(F)F)CC(c1ccc(Br)cc1)N2` (stereo unspecified), the cell number change was found to be 16.2%. Moreover, the AC50 under setting [1] was 23.1 µM [rising, single point].

With `O=C(c1nsnc1-c1ccccc1O)N1CCCCC1`, the cell number change is -82.7%. Further, the AC50 under setting [2] is 32.6 µM [falling, single point].

In the case of `Cc1cc2n(n1)C(c1ccccc1)Nc1ccccc1-2` (stereo unspecified), the AC50 under setting [1] is 20.6 µM [rising, partial curve].

`CCCn1nc([N+](=O)[O-])c(C(C#N)c2nc3ccccc3o2)c(Cl)c1=O` (stereo unspecified): the cell number change came to 20.1%. Besides, under setting [1], the AC50 is 23.1 µM [rising, single point].

In the case of `C#CCOCCOCCOCCNc1nc(N2CCN(C(=O)CCCCCCCCCCNC(=O)[C@H]([C@@H](C)CC)n3cc(CCCCCN)nn3)CC2)nc(N2CCN(C(=O)CCCCCCCCCCNC(=O)[C@@H]([C@H](C)CC)n3cc(CCCCCN)nn3)CC2)n1`, the cell number change is -94.3%. For the same compound, under setting [2], the AC50 was 23.1 µM [falling, partial curve]. The AC50 under setting [1] was 23.1 µM [falling, partial curve, poor fit].

Turning to `CCOC(=O)N1CCN(CC(O)COC2CC(C)CC(C)(C)C2)CC1` (stereo unspecified), the cell number change is 9.21%. Besides, the AC50 under setting [1] is 14.6 µM [rising, partial curve].

`CC(=O)OC[C@H]1O[C@@H](n2ccc(=O)[nH]c2=S)C(OC(C)=O)C1OC(C)=O` (stereo partly specified): the cell number change was 4.84%.

Take `O=C(CC(=O)Nc1ccc(F)cc1)Nc1ccc(F)cc1`: the AC50 under setting [2] is 3.66 µM [rising, partial curve].

In the case of `COc1ccc2c(c1OC)c(=O)n1c3ccc(OC(C)C(=O)NCCN4CCOCC4)cc3c3ccnc2c31` (stereo unspecified), the cell number change was 8.41%.

As for `Cc1ccc(S(=O)(=O)NC2=NCN(CCc3ccccc3)CN2)cc1`, the cell number change worked out at 23.9%.

Consider `O=C(Nc1ccnn1C1CCN(Cc2cccc(F)c2F)CC1)C1CCCC1`, for which the cell number change turned out to be 6.94%. Further, under setting [1], the AC50 was 2.31 µM [rising, single point].

As for `CC(C)=N/N=c1\scc(C)n1Cc1ccco1`, the cell number change was determined as 7.94%. Besides, the AC50 under setting [1] is 18.4 µM [rising, single point].

For the compound `CCc1nc2c(c(SC)nn2-c2ccccc2)c(N)c1C(=O)OC`, the cell number change came to 10.3%.

`O=C(COC(=O)c1nc(Cl)c(Cl)c(Cl)c1Cl)c1ccc[nH]1`: the AC50 was 0.326 µM [falling, full curve, poor fit] under setting [2] and 11.6 µM [falling, partial curve, poor fit] under setting [1].

For the origin of these results see PubChem BioAssay AID2685 (National Center for Advancing Translational Sciences (NCATS), 2010).
